# From patent US11129830B2, “PAC-1 combination therapy” (The Board of Trustees of the University of Illinois, priority 2015, dated 2021)
# Some of these results come from one statement about several compounds together.
# System: cell lines with the V600EBRAF mutation
# Assay: Annexin V/PI flow cytometry apoptosis, V600EBRAF cell lines
# Type: cell-based
# Details: 24 h incubation; vemurafenib 10 μM, PAC-1 12 μM; Annexin V-FITC/PI
smiles,measurement,value
CCCS(=O)(=O)Nc1ccc(F)c(C(=O)c2c[nH]c3ncc(-c4ccc(Cl)cc4)cc23)c1F [vemurafenib],apoptotic death as single agents,≤ 10%
